For test [1], the target named is Sorting protein-related receptor containing LDLR class A repeats (SORLA) (mouse (endogenous in brain)) (UniProt O88307). Description: co-IP; endogenous proteins from brain lysates; IP with anti-SORLA or anti-Trk antisera, control without primary antibody (No IgG); standard protocols utilizing streptavidin agarose beads; Western blot. On the technique in general: In western blotting, separated proteins are transferred to a membrane and probed.

Sequences of proteins named here, by UniProt entry; tags and fusion partners are left off. Residues count along the entry.
UniProt O88307, residues 82-2215: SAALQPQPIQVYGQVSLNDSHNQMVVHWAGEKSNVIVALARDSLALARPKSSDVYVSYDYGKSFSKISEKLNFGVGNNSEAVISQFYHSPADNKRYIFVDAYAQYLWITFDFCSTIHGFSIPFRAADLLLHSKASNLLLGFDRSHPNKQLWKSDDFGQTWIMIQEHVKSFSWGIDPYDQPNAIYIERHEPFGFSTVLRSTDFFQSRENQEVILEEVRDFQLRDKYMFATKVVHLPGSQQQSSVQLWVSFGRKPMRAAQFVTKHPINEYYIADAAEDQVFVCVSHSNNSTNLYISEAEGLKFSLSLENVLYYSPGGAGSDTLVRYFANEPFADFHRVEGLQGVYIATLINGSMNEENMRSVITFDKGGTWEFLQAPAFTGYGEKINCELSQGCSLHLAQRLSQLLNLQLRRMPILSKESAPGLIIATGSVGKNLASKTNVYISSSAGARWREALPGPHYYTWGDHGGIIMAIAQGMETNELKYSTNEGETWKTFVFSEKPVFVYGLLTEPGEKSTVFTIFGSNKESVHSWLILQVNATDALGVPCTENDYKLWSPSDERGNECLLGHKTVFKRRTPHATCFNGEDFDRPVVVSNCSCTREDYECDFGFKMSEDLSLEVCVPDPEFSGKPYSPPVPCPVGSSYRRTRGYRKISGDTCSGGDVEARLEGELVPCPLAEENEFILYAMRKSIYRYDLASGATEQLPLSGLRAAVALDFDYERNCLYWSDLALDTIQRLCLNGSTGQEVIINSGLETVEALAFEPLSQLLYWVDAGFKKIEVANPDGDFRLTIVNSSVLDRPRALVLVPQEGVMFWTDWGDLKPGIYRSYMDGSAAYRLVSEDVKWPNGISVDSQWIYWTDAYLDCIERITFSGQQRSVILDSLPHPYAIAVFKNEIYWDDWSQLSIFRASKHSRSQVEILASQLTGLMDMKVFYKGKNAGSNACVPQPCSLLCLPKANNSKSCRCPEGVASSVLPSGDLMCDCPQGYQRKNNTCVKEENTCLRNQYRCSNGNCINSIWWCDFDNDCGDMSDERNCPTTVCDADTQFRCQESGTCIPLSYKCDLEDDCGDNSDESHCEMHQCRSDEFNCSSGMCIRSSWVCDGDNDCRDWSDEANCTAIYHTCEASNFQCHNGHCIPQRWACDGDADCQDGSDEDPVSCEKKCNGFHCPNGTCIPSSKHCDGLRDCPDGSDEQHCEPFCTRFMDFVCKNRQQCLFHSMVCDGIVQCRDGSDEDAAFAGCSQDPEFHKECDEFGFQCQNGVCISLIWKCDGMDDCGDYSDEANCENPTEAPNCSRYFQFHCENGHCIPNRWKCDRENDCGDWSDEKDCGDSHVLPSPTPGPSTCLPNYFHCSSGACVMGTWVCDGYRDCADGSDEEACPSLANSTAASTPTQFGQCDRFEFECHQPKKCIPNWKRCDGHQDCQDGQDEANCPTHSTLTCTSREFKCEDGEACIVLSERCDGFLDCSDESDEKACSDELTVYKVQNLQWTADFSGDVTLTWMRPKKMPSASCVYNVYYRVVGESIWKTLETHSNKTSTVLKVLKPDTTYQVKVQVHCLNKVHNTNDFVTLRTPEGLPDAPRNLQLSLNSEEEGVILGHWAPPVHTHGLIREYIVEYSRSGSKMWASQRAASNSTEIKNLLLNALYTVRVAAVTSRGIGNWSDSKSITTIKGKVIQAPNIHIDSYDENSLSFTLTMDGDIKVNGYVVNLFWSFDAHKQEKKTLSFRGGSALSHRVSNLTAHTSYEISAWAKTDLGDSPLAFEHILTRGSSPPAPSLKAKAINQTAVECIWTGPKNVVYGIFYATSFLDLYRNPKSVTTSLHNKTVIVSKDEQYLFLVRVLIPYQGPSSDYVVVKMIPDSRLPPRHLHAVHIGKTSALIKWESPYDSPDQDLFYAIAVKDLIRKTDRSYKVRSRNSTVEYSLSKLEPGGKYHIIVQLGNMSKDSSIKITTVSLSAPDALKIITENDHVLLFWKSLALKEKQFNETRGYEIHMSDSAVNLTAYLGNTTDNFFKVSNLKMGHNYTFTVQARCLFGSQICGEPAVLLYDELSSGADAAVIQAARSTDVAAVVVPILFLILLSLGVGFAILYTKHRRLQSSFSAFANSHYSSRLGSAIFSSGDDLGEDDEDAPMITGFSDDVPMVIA
UniProt P15209, residues 32-821: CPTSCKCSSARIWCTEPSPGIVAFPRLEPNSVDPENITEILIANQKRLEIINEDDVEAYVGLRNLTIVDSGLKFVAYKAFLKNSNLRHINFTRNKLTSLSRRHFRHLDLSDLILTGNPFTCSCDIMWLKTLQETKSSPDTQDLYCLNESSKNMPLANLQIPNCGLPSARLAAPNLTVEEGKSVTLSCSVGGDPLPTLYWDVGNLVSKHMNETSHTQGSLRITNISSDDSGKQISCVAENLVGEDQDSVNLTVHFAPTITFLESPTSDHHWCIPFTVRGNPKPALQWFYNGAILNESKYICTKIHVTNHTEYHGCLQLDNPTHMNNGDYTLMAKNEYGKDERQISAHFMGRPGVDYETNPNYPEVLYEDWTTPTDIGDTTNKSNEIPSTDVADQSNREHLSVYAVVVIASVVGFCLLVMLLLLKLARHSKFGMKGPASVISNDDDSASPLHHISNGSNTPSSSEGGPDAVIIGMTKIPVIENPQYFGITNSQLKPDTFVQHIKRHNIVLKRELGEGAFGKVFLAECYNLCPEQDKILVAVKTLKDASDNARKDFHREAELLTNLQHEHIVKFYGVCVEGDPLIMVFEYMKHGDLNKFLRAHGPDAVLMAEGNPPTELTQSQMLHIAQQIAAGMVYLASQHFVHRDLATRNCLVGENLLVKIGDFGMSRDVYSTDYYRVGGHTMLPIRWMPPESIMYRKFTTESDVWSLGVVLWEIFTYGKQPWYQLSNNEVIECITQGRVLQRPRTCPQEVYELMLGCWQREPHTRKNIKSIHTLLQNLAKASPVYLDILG

The target in test [2] is tropomyosin-related kinase receptor B (TrkB) (mouse (endogenous in brain)) (UniProt P15209). The description is as above.

No constants are given. Whether binding was seen depends on the method and setting. In cells and extracts the contact can be indirect. Some binding calls cover weakened binding; strength is not graded here.

As for “tropomyosin-related kinase receptor B (TrkB) (from UniProt P15209 32-821)”, the binding result in test [1] was “binds”.

“Sorting protein-related receptor containing LDLR class A repeats (SORLA) (from UniProt O88307 82-2215)”: the binding result in test [2] was “binds”.

The values above are taken from PMC3747043.
